PubChem BioAssay AID602196, INSERM – 2012
Here is a random part of about 23,000 reagents. Over the whole deposit, 455 (2%) were called active. 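Active includes both protection and sensitisation; some change values fall well beyond the stated -50 to +50 range.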 A number with no mark means an inactive call. The numbers tell different reagents against one gene apart. Further read-outs or replicates are left out here. Not given: the amount of reagent.

Assay: 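Modifiers of cisplatin sensitivity in A549 cells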
Cells: human A549 lung cancer cells
Reagent: siRNA pair against human genes
Duration: 48 h transfection before cisplatin; time from cisplatin to read-out not stated
Challenge: cisplatin at a dose killing half of control-siRNA cells; exact dose and duration not given
Measurement: 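Shift in cisplatin death relative to control siRNA, from -50 (all cells die) to +50 (no cells die); siRNAs harmful on their own scored 0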
Direction: two-siRNA summed score (-2 to +2): higher = both siRNAs protect from cisplatin killing; -2 means both sensitise; mean protection from cisplatin (shift in death): higher = protection from cisplatin killing
Active means: 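Each siRNA scores 0 if harmful alone by LDH or WST-1, otherwise +1 if it reduces and -1 if it increases cisplatin killing; a gene is active when both siRNAs agree (sum +2 or -2)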
Calls: active = both siRNAs shift cisplatin killing the same way; inactive = no consistent shift, or siRNA harmful alone

gene symbol | reagent no. | two-siRNA summed score (-2 to +2) | mean protection from cisplatin (shift in death) (%)
ODR4 | 1 | 0 | 1
SPDL1 | 1 | 0 | 0.6
LOC388139 | 1 | 0 | 3.9
LILRA5 | 1 | 0 | 4.4
CELSR2 | 1 | 0 | 6.1
OR2T27 | 1 | -1 | -1.6
VTCN1 | 1 | 0 | -0.9
LOC441902 | 1 | 1 | 14.2
PLGRKT | 1 | 0 | 0.4
ADAMTS12 | 1 | 0 | 18.2
MYO18A | 1 | 0 | 8.6
MYO18A | 2 | 1 | 11.3
LOC387869 | 1 | 0 | 4.4
LOC400567 | 1 | 1 | 18.6
TCEAL8 | 1 | 0 | 2.9
TADA2A | 1 | 0 | 5.1
DZIP1L | 1 | -1 | -9.3
PIAS3 | 1 | -1 | -5.4

Reprinted from the entries so far (6 entries):
gene symbol | reagent no. | two-siRNA summed score (-2 to +2) | mean protection from cisplatin (shift in death) (%)
CELSR2 | 1 | 0 | 6.1
OR2T27 | 1 | -1 | -1.6
VTCN1 | 1 | 0 | -0.9
LOC441902 | 1 | 1 | 14.2
PLGRKT | 1 | 0 | 0.4
ADAMTS12 | 1 | 0 | 18.2

More reagents follow.
gene symbol | reagent no. | two-siRNA summed score (-2 to +2) | mean protection from cisplatin (shift in death) (%)
ZBTB7A | 1 | 0 | 6.6
DEPDC4 | 1 | 0 | 6.2
FCN3 | 1 | -1 | -10.9
MSRB3 | 1 | 0 | 5.4
LOC400163 | 1 | 0 | -4.6
OPRD1 | 1 | 1 | 8.1
IARS1 | 1 | 0 | -1.9
THAP2 | 1 | 0 | -1.3
CHCHD3 | 1 | 1 | 5.8
OR10H1 | 1 | 0 | -2.4
CHAC2 | 1 | 1 | 15.7
RNASE6 | 1 | 0 | 0.5
CUTA | 1 | 0 | 12.8
CUTA | 2 | 1 | 17.5
KRTAP20-2 | 1 | 0 | 2.1
CHMP5 | 1 | 0 | 17.7
LOC442372 | 1 | 1 | 29.1
FCGR3A | 1 | -1 | -8.3
LOC339819 | 1 | 0 | 10.9
LOC115131 | 1 | 1 | 6.9
KDELR3 | 1 | -1 | -23.4
